In test [1] the target is Neurobeachin (mouse (endogenous in mouse brain)) (UniProt Q9EPN1). Kind of test: affinity purification with mass spectrometry; IP with α-Nbea antibody from E18 mouse brain homogenates solubilised with 1% Triton X-100, protein A/G agarose, 4°C; controls: Nbea KO brain, pre-immune serum, empty beads; SDS-PAGE, trypsin, LTQ-Orbitrap.
The target is the same in test [2]. Put plainly: affinity purification with mass spectrometry; IP with α-Nbea antibody from the P2+microsomes fraction of P84 mouse brain solubilised with 1% n-Dodecyl β-D-maltoside (DDM), protein A/G agarose, 4°C; controls: empty beads, E18 KO IP; LTQ-Orbitrap.

Amino acid sequences for entries named in this document (tags omitted).
UniProt Q9EPN1: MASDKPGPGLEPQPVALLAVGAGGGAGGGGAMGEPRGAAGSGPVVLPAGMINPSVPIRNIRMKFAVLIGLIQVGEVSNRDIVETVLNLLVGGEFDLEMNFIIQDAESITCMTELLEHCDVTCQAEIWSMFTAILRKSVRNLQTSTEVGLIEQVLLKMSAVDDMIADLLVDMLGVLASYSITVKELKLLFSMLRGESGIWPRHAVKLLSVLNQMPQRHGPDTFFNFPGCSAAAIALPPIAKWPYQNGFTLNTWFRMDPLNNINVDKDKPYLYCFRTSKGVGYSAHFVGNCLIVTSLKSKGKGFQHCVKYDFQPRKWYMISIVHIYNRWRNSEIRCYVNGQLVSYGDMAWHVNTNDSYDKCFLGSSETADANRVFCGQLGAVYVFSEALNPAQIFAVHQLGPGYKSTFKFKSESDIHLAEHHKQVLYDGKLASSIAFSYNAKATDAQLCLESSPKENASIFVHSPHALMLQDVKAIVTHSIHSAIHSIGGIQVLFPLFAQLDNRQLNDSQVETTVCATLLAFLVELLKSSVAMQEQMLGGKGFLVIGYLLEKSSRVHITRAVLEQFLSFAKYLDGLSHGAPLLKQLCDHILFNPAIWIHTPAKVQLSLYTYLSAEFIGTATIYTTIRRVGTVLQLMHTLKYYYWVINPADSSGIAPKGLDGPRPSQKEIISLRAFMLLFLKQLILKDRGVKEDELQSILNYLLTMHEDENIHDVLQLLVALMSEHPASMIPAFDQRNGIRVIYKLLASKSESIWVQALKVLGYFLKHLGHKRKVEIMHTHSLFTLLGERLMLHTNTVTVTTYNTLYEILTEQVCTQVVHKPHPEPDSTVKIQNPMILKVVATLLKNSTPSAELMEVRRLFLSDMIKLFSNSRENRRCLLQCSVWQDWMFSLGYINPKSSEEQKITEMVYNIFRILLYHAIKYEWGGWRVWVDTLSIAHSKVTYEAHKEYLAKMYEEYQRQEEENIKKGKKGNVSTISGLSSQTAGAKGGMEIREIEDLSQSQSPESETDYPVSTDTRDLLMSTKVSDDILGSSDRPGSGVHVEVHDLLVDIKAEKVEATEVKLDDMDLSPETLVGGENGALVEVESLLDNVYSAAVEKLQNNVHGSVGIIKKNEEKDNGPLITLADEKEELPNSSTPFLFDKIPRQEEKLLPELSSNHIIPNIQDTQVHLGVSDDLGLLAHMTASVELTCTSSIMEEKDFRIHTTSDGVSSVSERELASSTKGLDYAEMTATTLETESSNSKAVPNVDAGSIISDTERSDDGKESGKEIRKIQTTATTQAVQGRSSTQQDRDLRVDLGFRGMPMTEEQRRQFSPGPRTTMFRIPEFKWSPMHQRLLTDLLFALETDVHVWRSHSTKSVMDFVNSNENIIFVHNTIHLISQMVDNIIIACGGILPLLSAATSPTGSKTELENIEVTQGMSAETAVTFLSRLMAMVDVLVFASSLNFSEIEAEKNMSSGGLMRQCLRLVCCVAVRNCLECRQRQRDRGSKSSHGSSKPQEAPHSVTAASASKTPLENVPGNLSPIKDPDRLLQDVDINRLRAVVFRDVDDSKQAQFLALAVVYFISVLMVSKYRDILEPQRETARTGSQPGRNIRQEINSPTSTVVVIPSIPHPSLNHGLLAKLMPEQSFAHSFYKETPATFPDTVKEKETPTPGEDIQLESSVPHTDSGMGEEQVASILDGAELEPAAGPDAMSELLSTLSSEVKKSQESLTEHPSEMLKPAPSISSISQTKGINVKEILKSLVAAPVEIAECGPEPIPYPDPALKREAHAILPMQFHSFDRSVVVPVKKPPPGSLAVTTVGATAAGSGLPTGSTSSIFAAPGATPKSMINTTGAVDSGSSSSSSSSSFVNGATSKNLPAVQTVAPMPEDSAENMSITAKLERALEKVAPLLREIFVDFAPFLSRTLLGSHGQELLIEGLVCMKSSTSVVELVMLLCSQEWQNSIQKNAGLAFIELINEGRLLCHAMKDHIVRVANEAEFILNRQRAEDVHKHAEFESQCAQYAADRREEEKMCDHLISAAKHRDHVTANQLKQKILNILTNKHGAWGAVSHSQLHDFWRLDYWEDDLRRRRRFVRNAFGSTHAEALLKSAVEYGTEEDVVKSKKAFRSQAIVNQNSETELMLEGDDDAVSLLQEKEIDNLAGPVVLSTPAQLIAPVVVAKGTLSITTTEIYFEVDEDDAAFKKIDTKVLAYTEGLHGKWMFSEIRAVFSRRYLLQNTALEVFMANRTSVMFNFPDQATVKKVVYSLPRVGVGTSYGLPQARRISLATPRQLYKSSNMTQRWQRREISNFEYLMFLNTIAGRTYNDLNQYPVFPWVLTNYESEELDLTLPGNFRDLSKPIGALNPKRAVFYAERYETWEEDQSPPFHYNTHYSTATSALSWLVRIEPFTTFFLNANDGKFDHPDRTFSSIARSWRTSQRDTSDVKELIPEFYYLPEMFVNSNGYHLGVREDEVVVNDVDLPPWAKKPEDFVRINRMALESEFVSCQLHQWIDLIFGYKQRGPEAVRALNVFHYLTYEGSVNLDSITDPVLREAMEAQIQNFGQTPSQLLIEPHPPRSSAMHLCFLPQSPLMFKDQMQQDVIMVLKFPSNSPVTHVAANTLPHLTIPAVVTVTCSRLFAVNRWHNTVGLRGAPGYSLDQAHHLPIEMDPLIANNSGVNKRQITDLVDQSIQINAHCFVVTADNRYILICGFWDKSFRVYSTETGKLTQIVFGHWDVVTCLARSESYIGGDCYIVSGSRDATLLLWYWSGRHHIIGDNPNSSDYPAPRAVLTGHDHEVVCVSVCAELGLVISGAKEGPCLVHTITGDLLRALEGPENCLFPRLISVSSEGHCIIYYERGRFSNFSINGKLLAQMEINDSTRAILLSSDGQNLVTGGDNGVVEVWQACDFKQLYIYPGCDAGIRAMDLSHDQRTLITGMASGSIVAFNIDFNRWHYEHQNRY
UniProt Q05BC3: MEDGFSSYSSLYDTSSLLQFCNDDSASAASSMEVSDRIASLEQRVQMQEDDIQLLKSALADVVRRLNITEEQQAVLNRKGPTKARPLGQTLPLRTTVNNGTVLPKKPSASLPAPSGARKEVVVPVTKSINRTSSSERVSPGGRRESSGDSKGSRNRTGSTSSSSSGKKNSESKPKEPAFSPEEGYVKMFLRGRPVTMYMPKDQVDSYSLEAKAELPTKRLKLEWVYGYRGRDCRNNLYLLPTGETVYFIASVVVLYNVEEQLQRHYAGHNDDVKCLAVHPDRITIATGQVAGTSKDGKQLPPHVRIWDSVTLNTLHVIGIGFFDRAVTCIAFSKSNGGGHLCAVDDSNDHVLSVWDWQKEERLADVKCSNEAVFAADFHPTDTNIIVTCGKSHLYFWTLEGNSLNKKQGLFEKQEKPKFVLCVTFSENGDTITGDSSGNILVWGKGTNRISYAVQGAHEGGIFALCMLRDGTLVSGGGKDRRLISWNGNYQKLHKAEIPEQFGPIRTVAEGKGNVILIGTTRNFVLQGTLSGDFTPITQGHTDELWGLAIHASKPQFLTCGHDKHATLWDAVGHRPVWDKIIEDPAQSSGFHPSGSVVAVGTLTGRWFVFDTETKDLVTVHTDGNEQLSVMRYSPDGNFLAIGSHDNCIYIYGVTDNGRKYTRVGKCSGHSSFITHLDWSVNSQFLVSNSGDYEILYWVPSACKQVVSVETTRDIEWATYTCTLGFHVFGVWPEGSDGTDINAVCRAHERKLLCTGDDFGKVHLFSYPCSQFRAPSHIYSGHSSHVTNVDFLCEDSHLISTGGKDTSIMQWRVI
UniProt Q9Z218: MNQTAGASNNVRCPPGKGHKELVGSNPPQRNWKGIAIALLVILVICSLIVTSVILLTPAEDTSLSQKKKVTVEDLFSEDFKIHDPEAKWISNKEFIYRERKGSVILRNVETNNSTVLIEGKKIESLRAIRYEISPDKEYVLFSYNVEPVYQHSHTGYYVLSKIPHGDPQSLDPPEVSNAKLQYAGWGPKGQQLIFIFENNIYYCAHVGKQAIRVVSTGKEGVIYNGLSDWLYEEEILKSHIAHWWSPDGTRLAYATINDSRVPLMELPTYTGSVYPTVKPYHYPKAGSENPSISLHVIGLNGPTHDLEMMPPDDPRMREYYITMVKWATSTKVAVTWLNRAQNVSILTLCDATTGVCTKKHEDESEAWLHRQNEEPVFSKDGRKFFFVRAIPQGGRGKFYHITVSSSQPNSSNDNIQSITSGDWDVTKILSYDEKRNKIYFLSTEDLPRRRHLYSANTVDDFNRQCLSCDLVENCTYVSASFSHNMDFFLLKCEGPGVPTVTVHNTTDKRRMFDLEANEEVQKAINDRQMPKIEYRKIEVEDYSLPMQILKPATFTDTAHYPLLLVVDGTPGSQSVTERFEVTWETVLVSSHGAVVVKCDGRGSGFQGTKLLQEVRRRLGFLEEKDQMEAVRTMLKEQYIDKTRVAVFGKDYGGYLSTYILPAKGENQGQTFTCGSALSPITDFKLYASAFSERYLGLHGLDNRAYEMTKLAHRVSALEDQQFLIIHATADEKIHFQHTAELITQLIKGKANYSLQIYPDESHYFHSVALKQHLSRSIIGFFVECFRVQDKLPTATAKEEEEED

Results are given in words; binding and its absence hold for the method and conditions named. Binding seen in cells or lysates may run through a third protein. These calls come from enrichment with a bait or labelling near it, and not all partners need be listed.

For the molecule “Echinoderm microtubule-associated protein like 1 (from UniProt Q05BC3 1-814)”, in test [1], the binding entry is listed as “binds”.

Turning to “Lipopolysaccharide-responsive and beige-like anchor protein (from UniProt Q9ESE1 1-2856)”, the binding entry in test [1] is recorded as “binds”. As for “Dipeptidyl aminopeptidase-like protein 6 (from UniProt Q9Z218 1-804)”, the binding entry in test [2] and in test [1] was “binds” in each case.

B1: Echinoderm microtubule-associated protein like 4 (protein, UniProt Q3UMY5 1-988)
chain: MDGFAGSLDDSISAASTSDVQDRLSALESRVQQQEDEITVLKAALADVLRRLAISEDHVASVKKSMPSKGQPSLREAISMSCITNGSGISRKQNHTSSVSIARKETLSSAAKSGTEKKKEKPQGQREKKEDSHSNDQSPQIRASPSPQPSSQPLQINRQTPESKSSAPIKSIKRPPTAEKSHNSWENSDDSRNKLMKTVSTSKLISKVIKNADKHKDVIVNQAKMSTREKNSQEGEYIKMFMRGRPITMFIPSDVDNYDDIRTELPPEKLKLEWVYGYRGKDCRANVYLLPTGEIVYFIASVVVLFNYEERTQRHYLGHTDCVRCLAVHPDKIRIATGQIAGVDKDGRPLQPHVRVWDSVSLTTLHVIGLGTFERGVGCLDFSKADSGVHLCVIDDSNEHMLTVWDWQKKSKIAEIKTTNEVVLAVEFHPTDANTIITCGKSHIFFWTWSGNSLTRKQGIFGKYEKPKFVQCLAFLGNGDVLTGDSGGVMLIWSKTMVEPPPGKGPKGVYQINRQIKAHDGSVFTLCQMRNGMLLTGGGKDRKIILWDHDLNLEREIEVPDQYGTIRAVAEGRAEQFLVGTSRNFILRGTFNDGFQIEVQGHRDELWGLATHPFKDLLLTCAQDRQVCMWNSVEHRLEWTRLVDEPGHCADFHPSGTVVAIGTHSGRWFVLDAETRDLVSIHTDGNEQLSVMRYSVDGTLLAVGSHDNFIYLYTVLENGRKYSRYGKCTGHSSYITHLDWSPDNKHIMSNSGDYEILYWDIENGCKLIRNRSDCKDIDWTTYTCVLGFQVFGVWPEGSDGTDINALVRSHNRRVIAVADDFCKVHLFQYPCSKAKAPSHKYSAHSSHVTNVSFTHNDSHLISTGGKDMSIIQWKLVEKLPVPQNEVITDASVTKTPASSSETARPSNSPPLPPSLPLTGTAEEESRMGSSPTLVENSLEQIAEPSEEQSEWGSEDLGVVIDEEPASELSETQGATELPEEERGITPLC
In the case of B1, in test [1], the binding entry is “binds”.

B2: TBC1 domain family member 5 (protein, UniProt Q80XQ2 1-815)
chain: MYKSVSETRHPLQSEEQEVGIDPLFSYSNKTRGDLSQNGRGSNSTLDTEGTFNSYMKEWEELFVNNNYLATVRQKGINGQLRSSRFRSICWKLFLCVLPQDKSQWISKIKELRAWYSSIKEIHITNPRKAAGQQDLMINNPLSQDEGSLWNKFFQDKELRSMIEQDVKRTFPEMQFFQQENVRKILTDVLFCYARENEQLLYKQGMHELLAPIIFTLHCDHQAFLHASESAQPSEEMKTLLNPEYLEHDAYAMFSQLMETAEPWFSTFEHDGQKGKETLMAPIPFARPQDLGPTVAIVTKVNQIQDHLLKKHDIELYMHLNRLEIAPQIYGLRWVRLLFGREFPLQDLLVVWDALFADSLNLSLVDYVFTAMLLYIRDALISSNYQTCLGLLMHYPIIGDIHSLILKALFLRDPKRNPRPATYQFHPNLDYYKARGADLMNKSRTNARGAPLNIHKVSNSLINFGRKLISPASAPGSMGGPVPGNNSSSSFSAAIPTRTSTEAPRHHLLQQQQQQQHQQQQQQQPQQQQQQHQQQQQQQRLMKSESMPVQLNKGQSSKTISSSPSIESLPGGREFTGSPPPSATKKDSFFSNIARSRSHSKTMGRKESEEELEAQISFLQGQLNDLDAMCKYCAKVMDMHLVNIQDVVLQENLEKEDQILVSLAGLKQIKDILKGSLRFNQSQLEAGENEQITIADDHYCSSGQDQGSQVPRAAKQASSEMPGCTGGTTPDDFILVSKEDEGHRARGAFSGQAQPLLTLRSTSGKSRAPACSPLLFSDPLMGPASASASSSNPSSSPDDDSSKESGFTIVSPLDI
Regarding B2, the binding entry in test [2] was “binds”.

B3: Echinoderm microtubule-associated protein like 2 (protein, UniProt Q7TNG5 1-649)
chain: MSSFGIGKTKEVIFSMEEGSVKMFLRGRPVPMLIPDELAPTYSLDTRSELPSSRLKLDWVYGYRGRDCRANLYLLPTGEVVYFVASVAVLYSVEEQRQRHYLGHNDDIKCLAVHPDMVTIATGQVAGTTKEGKPLPPHVRVWDSVSLSTLHVLGLGVFDRAVCCVAFSKSNGGNLLCAVDESNDHVLSVWDWAKESKVVDSKCSNEAVLVATFHPTDPSLLITCGKSHIYFWSLEGGSLSKRQGLFEKHEKPKYVLCVTFLEGGDVVTGDSGGNLYVWGKGGNRITQEVQGAHDGGVFALCALRDGTLVSGGGRDRRVVLWGSDYSKVQEVEVPEDFGPVRTVAEGRGDTLYVGTTRNSILLGSVHTGFSLLVQGHVEELWGLATHPSRAQFVTCGQDKLVHLWSSETHQPVWSRSIEDPARSAGFHPSGSVLAVGTVTGRWLLLDTETHDLVAIHTDGNEQISVVSFSPDGAYLAVGSHDNLVYVYTVDQGGRKVSRLGKCSGHSSFITHLDWAQDSTCFVTNSGDYEILYWDPVTCKQITSADTVRNVEWATATCVLGFGVFGIWPEGADGTDINAVARSHDGKLLVSADDFGKVHLFSYPCCQPRALSHKYGGHSSHVTNVAFLWDDSMALTTGGKDTSVLQWRVA
Take B3: the binding result in test [2] and in test [1] was “binds” in each case.

B4: Complement component 1Q subcomponent-binding protein, mitochondrial (protein, UniProt O35658 71-278)
chain: LHTEGDKAFVEFLTDEIKEEKKIQKHKSLPKMSGDWELEVNGTEAKLLRKVAGEKITVTFNINNSIPPTFDGEEEPSQGQKAEEQEPERTSTPNFVVEVTKTDGKKTLVLDCHYPEDEIGHEDEAESDIFSIKEVSFQATGDSEWRDTNYTLNTDSLDWALYDHLMDFLADRGVDNTFADELVELSTALEHQEYITFLEDLKSFVKNQ
Regarding B4, the binding entry in test [2] is listed as “binds”.

B5: Discs large homolog 3, Synapse-associated protein 102 (protein, UniProt P70175 1-849)
chain: MHKHQHCCKCPECYEVTRLAALRRLEPPGYGDWQVPDPYGPSGGNGASSGYGGYSSQTLPSQAGATPTPRTKAKLIPTGRDVGPVPPKPVPGKSTPKLNGSGPGWWPECTCTNRDWYEQASPAPLLVNPEALEPSLSVNGSDGMFKYEEIVLERGNSGLGFSIAGGIDNPHVPDDPGIFITKIIPGGAAAMDGRLGVNDCVLRVNEVDVSEVVHSRAVEALKEAGPVVRLVVRRRQPPPETIMEVNLLKGPKGLGFSIAGGIGNQHIPGDNSIYITKIIEGGAAQKDGRLQIGDRLLAVNNTNLQDVRHEEAVASLKNTSDMVYLKVAKPGSIHLNDMYAPPDYASTFTALADNHISHNSSLGYLGAVESKVTYPAPPQVPPTRYSPIPRHMLAEEDFTREPRKIILHKGSTGLGFNIVGGEDGEGIFVSFILAGGPADLSGELRRGDRILSVNGVNLRNATHEQAAAALKRAGQSVTIVAQYRPEEYSRFESKIHDLREQMMNSSMSSGSGSLRTSEKRSLYVRALFDYDRTRDSCLPSQGLSFSYGDILHVINASDDEWWQARLVTPHGESEQIGVIPSKKRVEKKERARLKTVKFHARTGMIESNRDFPGLSDDYYGAKNLKGVTSNTSDSESSSKGQEDAILSYEPVTRQEIHYARPVIILGPMKDRVNDDLISEFPHKFGSCVPHTTRPRRDNEVDGQDYHFVVSREQMEKDIQDNKFIEAGQFNDNLYGTSIQSVRAVAERGKHCILDVSGNAIKRLQQAQLYPIAIFIKPKSIEALMEMNRRQTYEQANKIFDKAMKLEQEFGEYFTAIVQGDSLEEIYNKIKQIIEDQSGHYIWVPSPEKL
As to B5, the binding entry in test [2] and in test [1] was “binds” each time.

The values above are taken from article PMC3380004.
